Assay results published in PubChem BioAssay AID651640 (Broad Institute, 2012).
In all, about 350,000 compounds went through this assay and about 6,000 (1.7%) were called active. Inconclusive results, whose numbers are uncertain, are shown with a selection of clear calls. No stated cut-off is given here; in the data, active means CPE inhibition above about 20% (passing the limit was not always enough); inconclusive means no clear call, values can overlap the other calls; tested in BHK-21 cells.

Experiment: protection of cells from dengue 2 killing – plate reader, single concentration, primary screen (AID 651640);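 further: 0% = median of neutral control wells and 100% = median of positive control wells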
Settings: DENV2-infected cells, cytopathic effect rescue, at 9.99 µM, active compounds read high

| Structure (SMILES) | CPE inhibition |
| --- | --- |
| Cc1cccc(NC(=O)Cn2nnc(C(=O)Nc3ccc(F)c(Cl)c3)c2N)c1 | inconclusive: 26.9% |
| C[C@H]1CN([C@@H](C)CO)C(=O)c2cccc(NS(=O)(=O)c3ccc(Cl)cc3)c2O[C@@H]1CN(C)C(=O)Nc1ccc(F)cc1 | inactive: 2.74% |
| CCc1cc2c(cc3c(=O)n(CC(=O)NCCCN4CC(C)CC(C)C4)ncn32)s1 (stereo not given) | active: 64% |
| O=C(NC1CCCCC1)C1CCN(c2ncccn2)CC1 | inactive: -2.26% |
| CC(C)C#Cc1ccc2c(c1)O[C@H](CN(C)C(=O)c1cccc(F)c1)[C@H](C)CN([C@H](C)CO)S2(=O)=O | inactive: -3.97% |
| CCC(C)C(=O)Nc1nc2ccc(S(C)(=O)=O)cc2s1 (stereo not given) | inactive: 2.97% |
| CCOC(=O)Cn1c(=O)oc2cc(S(=O)(=O)NC3CCCc4ccccc43)ccc21 (stereo not given) | active: 27.4% |
| Cc1ccc(NCc2nnc(SCC(=O)Nc3nnc(C)s3)n2C)cc1 | inactive: -1.51% |
| CCC(=O)N1[C@@H](CO)[C@@H]2c3ccccc3N(C(=O)Nc3cccc(Cl)c3)C[C@@H]21 | inconclusive: 49.5% |
| O=C(NCC[C@@H]1CC[C@H](NC(=O)c2ccccc2F)[C@@H](CO)O1)c1ccc2c(c1)OCO2 | inconclusive: 49.5% |
| Cc1noc(C)c1NC(=O)N(C)C[C@@H]1Oc2ccc(NC(=O)CCN3CCOCC3)cc2C(=O)N([C@H](C)CO)C[C@@H]1C | inactive: 5.29% |
| CN1C(=O)N(CC(=O)N2CCN(S(=O)(=O)Cc3ccccc3)CC2)C(=O)C12CCCCC2 | inconclusive: 54.2% |
| C[C@@H]1CCCCO[C@@H](CN(C)C(=O)Nc2ccccc2)[C@H](C)CN([C@@H](C)CO)C(=O)c2cc(NC(=O)CCC(F)(F)F)ccc2O1 | inconclusive: 22% |
| O=C1c2ccccc2NC(c2ccc(Br)s2)N1O (stereo not given) | active: 52.7% |
| C[C@@H]1CN([C@@H](C)CO)C(=O)c2cccc(NC(=O)CCCCCC(=O)Nc3ccccc3N)c2O[C@H]1CN(C)C(=O)Nc1cccc2ccccc12 | active: 20.8% |
| COc1ccc2c3c([nH]c2c1)[C@H](CO)N(Cc1cccc(F)c1)CC31CN(CC2CC2)C1 | inconclusive: 27.3% |
| Cc1ccc(C(=O)N2CCSCC2)cc1 | inactive: -3.84% |
| O=C(COC(=O)Cc1ccc(Cl)cc1Cl)NCc1ccco1 | inconclusive: 73.2% |
| Cc1ccc2sc(C)[n+](CCO)c2c1 | inactive: -1.89% |
| O=S(=O)(NN=C1CCCCC1)c1ccccc1 | inactive: 1.76% |
| C[C@H](CO)N1C[C@H](C)[C@@H](CN(C)C(=O)Nc2cccc3ccccc23)Oc2ccc(NC(=O)Cc3ccccc3)cc2CC1=O | inactive: 14.2% |
| Cc1cccc2c1-c1sc(C(=O)N3CCCCC3)cc1CO2 | inactive: 3.91% |
| O=C(COc1ccc(Cl)cc1)Nc1cccc(S(=O)(=O)NC2=NCCCCC2)c1 | inconclusive: 33.8% |

Structures listed so far that contain two or more sulfur atoms:

| Structure (SMILES) | CPE inhibition |
| --- | --- |
| CCC(C)C(=O)Nc1nc2ccc(S(C)(=O)=O)cc2s1 (stereo not given) | inactive: 2.97% |
| Cc1ccc(NCc2nnc(SCC(=O)Nc3nnc(C)s3)n2C)cc1 | inactive: -1.51% |

An excerpt from further up:

| Structure (SMILES) | CPE inhibition |
| --- | --- |
| Cc1cccc(NC(=O)Cn2nnc(C(=O)Nc3ccc(F)c(Cl)c3)c2N)c1 | inconclusive: 26.9% |
| C[C@H]1CN([C@@H](C)CO)C(=O)c2cccc(NS(=O)(=O)c3ccc(Cl)cc3)c2O[C@@H]1CN(C)C(=O)Nc1ccc(F)cc1 | inactive: 2.74% |

Remaining list, next part:

| Structure (SMILES) | CPE inhibition |
| --- | --- |
| O=c1cc(-c2ccccc2)oc2cccc(O)c12 | inconclusive: 51.7% |
| COc1ccc(NC(=O)Nc2ccc3c(c2)C(=O)N([C@@H](C)CO)C[C@@H](C)[C@H](CN(C)S(=O)(=O)c2ccc(Cl)cc2)OCCCC[C@@H](C)O3)cc1 | active: 36% |
| CO[C@@H](CN(C)C(=O)c1ccccc1F)[C@H](C)CN([C@H](C)CO)S(=O)(=O)c1ccccc1 | inactive: -2.01% |
| N#C[C@@H]1[C@@H](c2ccc(-c3cccc(F)c3)cc2)[C@H](CO)N1C(=O)NC1CCCCC1 | inconclusive: 37.4% |
| C[C@@H]1CN([C@@H](C)CO)C(=O)c2cc(-c3ccncc3)cnc2O[C@H]1CN(C)C(=O)c1ccncc1 | inactive: 8.53% |
| COc1ccc(C)cc1S(=O)(=O)NC(C)c1cnn(-c2ccccn2)c1C (stereo not given) | inconclusive: 47.4% |
| O=c1[nH]c(NCCCO)nc2c1C1(CCCC1)Cc1ccccc1-2 | inconclusive: 35.2% |
| COc1ccc(S(=O)(=O)N(C)C[C@@H]2Oc3ccc(NC(=O)Nc4ccccc4)cc3CC(=O)N([C@H](C)CO)C[C@@H]2C)cc1 | inconclusive: 20.6% |
| COc1ccc(CN(C)C[C@@H]2OCCCC[C@@H](C)Oc3ccc(NC(=O)Nc4ccccc4)cc3C(=O)N([C@@H](C)CO)C[C@@H]2C)cc1 | inactive: 6.63% |
| C[C@H]1CN([C@@H](C)CO)C(=O)CCCn2nncc2CO[C@@H]1CN(C)Cc1cccc(C(F)(F)F)c1 | inconclusive: 34.5% |
| Cc1ccc(S(=O)(=O)N(C)C[C@@H]2Oc3cc(Br)ccc3S(=O)(=O)N([C@H](C)CO)C[C@@H]2C)cc1 | inconclusive: 26% |
| Cc1ccc(S(=O)(=O)Nc2ccc3c(c2)C(=O)N([C@@H](C)CO)C[C@@H](C)[C@@H](CN(C)C)OCCCC[C@@H](C)O3)cc1 | inconclusive: 31.7% |
| CC12CCC(C(=O)N(CCCCN3CCN(Cc4ccccc4)CC3)C1=O)C2(C)C (stereo not given) | inconclusive: 21.8% |
| CCCCn1c(N)c(N(CCOC)C(=O)CN(C)S(=O)(=O)c2ccc(C)cc2)c(=O)[nH]c1=O | inconclusive: 33.6% |
| CCOc1ccccc1-c1cc(C(=O)N2CCOCC2)c2ccccc2n1 | inconclusive: 52.2% |
| Cc1ccc2nc(SCC(=O)NC3CCS(=O)(=O)C3)[nH]c2c1 (stereo not given) | inconclusive: 25% |
| CC(C)Oc1ccc(Cn2c(=O)oc3ccccc32)cc1 | inconclusive: 42.5% |
| C[C@H](CO)N1C[C@H](C)[C@H](CN(C)Cc2ccncc2)Oc2ccc(NS(C)(=O)=O)cc2CC1=O | inactive: -2.44% |
| CN(CCc1ccccc1)C(=O)c1ccc(NC(=O)Cc2cccc(NC(=O)C3CCN(C(=O)CCc4ccccc4)CC3)c2)cc1 | inconclusive: 68.2% |
| C[C@@H]1CCCCO[C@@H](CN(C)S(=O)(=O)c2ccccc2)[C@H](C)CN([C@@H](C)CO)C(=O)c2cc(NC(=O)Nc3ccccc3)ccc2O1 | inconclusive: 25.5% |
| CC(C)NC(=O)N(C)C[C@@H]1Oc2ccc(NC(=O)Cc3ccccc3)cc2CC(=O)N([C@H](C)CO)C[C@H]1C | inactive: 2.9% |
| C[C@@H]1CCCCO[C@H](CN(C)C(=O)Nc2cccc3ccccc23)[C@@H](C)CN([C@@H](C)CO)C(=O)c2cc(NS(=O)(=O)c3ccccc3)ccc2O1 | active: 34.2% |
